The list does not hold the whole screen: it is rich in T/C values a quarter to a half above the control, in often repeated tests (any T/C) and in doses without a T/C. Further doses and runs are listed elsewhere. T/C is the treated group as % of the vehicle group. Some doses have a count of surviving animals in place of a T/C: the source holds a T/C of zero for them, seemingly a mark for toxic or unscored doses. Some doses without a T/C left all or most animals alive at the check, yet need not have been tolerated: survival well below the control is almost never listed, so the zero probably covers shortened survival too. Survivors were counted at the toxicity check, usually on the fifth day, unless a day is given; later deaths do not show. Schedule codes are those of the source, taken here to give the interval after Q, in days (D) or hours (H), and the number of doses after X. Some entries were tested several times; their values stand side by side, smallest first. Where survival is the endpoint, the PubChem record calls one and a half times the control and up active, and a quarter to a half above the control has no call in these data; cut-offs in other NCI protocols can differ.
System: P388 leukemia ip, CD2F1 mice, survival T/C
Test: NCI In Vivo Anticancer Drug Screen. Data for tumor model P388 Leukemia (intraperitoneal) in CD2F1 (CDF1) mice
Conditions: T/C endpoint: median survival time, higher T/C = longer survival
[1] = dose: 240.0 mg/kg/injection, schedule: Q01DX005 (ip), vehicle: Klucel (hydroxypropylcellulose) (HPC)
[2] = dose: 200.0 mg/kg/injection, schedule: Q01DX005 (ip), vehicle: Klucel (hydroxypropylcellulose) (HPC)
[3] = dose: 50.0 mg/kg/injection, schedule: Q01DX009 (ip), vehicle: saline with Tween-80
[4] = dose: 200.0 mg/kg/injection, schedule: Q01DX009 (ip), vehicle: saline with Tween-80
[5] = dose: 240.0 mg/kg/injection, schedule: Q01DX005 (ip), vehicle: saline with Tween-80
[6] = dose: 0.15 mg/kg/injection, schedule: Q01DX009 (ip), vehicle: saline

Compound: c1cnc2n[se]nc2c1
- survivor count (dose: 25.0 mg/kg/injection, schedule: Q04DX002 (ip), vehicle: saline): 1 of 6
- survivor count (dose: 100.0 mg/kg/injection, schedule: Q04DX002 (ip), vehicle: saline): 0 of 6
- survivor count (dose: 200.0 mg/kg/injection, schedule: Q04DX002 (ip), vehicle: saline): 0 of 6
- survivor count (dose: 400.0 mg/kg/injection, schedule: Q04DX002 (ip), vehicle: saline): 0 of 6

Compound: CCN(CC)CCCC(C)NC(Cc1ccccc1)c1cccc2ccccc12 (centres undefined)
- survivor count (dose: 100.0 mg/kg/injection, schedule: Q01DX005 (ip), vehicle: suspension in saline): 3 of 5

Compound: COC(=O)CCC(Br)(Br)Br
- survivor count (dose: 200.0 mg/kg/injection, schedule: Q01DX009 (ip), vehicle: Klucel (hydroxypropylcellulose) (HPC)): 6 of 6

Compound: Clc1cccc2c(SCCCCCCSc3c4ccccc4nc4c(Cl)cccc34)c3ccccc3nc12
- survivor count [1]: 6 of 6

Compound: Cn1c(=O)oc2cc([N+](=O)[O-])c(Cl)cc21
- survivor count [2]: 1 of 6

Compound: COC(CN1C(=O)CSC1=S)OC
- survivor count (dose: 25.0 mg/kg/injection, schedule: Q01DX009 (ip), vehicle: saline with Tween-80): 5 of 6

Compound: COc1ccc(C2OCOCC2C)cc1 (centres undefined)
- survivor count [3]: 6 of 6

Compound: O=c1[nH]c2c([N+](=O)[O-])cc(Cl)cc2nc1/C=C(\O)c1ccccc1
- survivor count [1]: 6 of 6

Compound: O=C1C(C(=Nc2cccc(Cl)c2)c2ccccc2)=C(O)c2ccccc21
- survivor count (dose: 100.0 mg/kg/injection, schedule: Q04DX002 (ip), vehicle: saline with Tween-80): 6 of 6

Compound: C[P+](CCOC(=O)NC(Cc1ccccc1)C(=O)O)(c1ccccc1)c1ccccc1 (centres undefined)
- survivor count [4]: 0 of 6

Compound: C#CO[C@@H]1C[C@H](C)CCC1C(C)C (some centres undefined)
- survivor count [5]: 0 of 6

Compound: CCCCCCCCCCCCCCCC[N+](C)(C)CCNC(=O)c1ccccc1
- survivor count (dose: 25.0 mg/kg/injection, schedule: Q01DX009 (ip), vehicle: water): 1 of 6
- survivor count (dose: 50.0 mg/kg/injection, schedule: Q01DX009 (ip), vehicle: water): 1 of 6

Compound: CC(=O)Oc1c(C)c(OC(C)=O)c2c(c1C(C)=O)OC1CC(=O)C(C(C)=O)=C(O)C21C (centres undefined)
- survivor count (dose: 25.0 mg/kg/injection, schedule: Q01DX009 (ip), vehicle: gum acacia): 6 of 6
- survivor count (dose: 200.0 mg/kg/injection, schedule: Q01DX009 (ip), vehicle: gum acacia): 3 of 6 and 4 of 6

Compound: CCNc1ccc(/C=C2\C=Cc3ccccc32)cc1
- survivor count (dose: 50.0 mg/kg/injection, schedule: Q01DX009 (ip), vehicle: Klucel (hydroxypropylcellulose) (HPC)): 6 of 6
- survivor count (dose: 100.0 mg/kg/injection, schedule: Q01DX009 (ip), vehicle: Klucel (hydroxypropylcellulose) (HPC)): 6 of 6

Compound: Cc1sc2ccccc2c(=O)c1CCl
- survivor count [5]: 4 of 6

Compound: CN=C(Nc1ccccn1)c1ccc(NC(=O)c2ccc(C(=O)Nc3ccc(C(=NC)Nc4ccccn4)cc3)cc2)cc1
- survivor count [2]: 1 of 6

Compound: CCN(CC)CC.[CH-]1CCCCC1.[CH-]1CCCCC1.[CH-]1CCCCC1.[Cl-].[N-]=C=NC(=O)NC1CCCCC1.[Sn+4]
- survivor count (dose: 12.0 mg/kg/injection, schedule: Q01DX005 (ip), vehicle: Klucel (hydroxypropylcellulose) (HPC)): 2 of 6
- survivor count (dose: 25.0 mg/kg/injection, schedule: Q01DX005 (ip), vehicle: Klucel (hydroxypropylcellulose) (HPC)): 0 of 6
- survivor count (dose: 50.0 mg/kg/injection, schedule: Q01DX005 (ip), vehicle: Klucel (hydroxypropylcellulose) (HPC)): 0 of 6
- survivor count (dose: 100.0 mg/kg/injection, schedule: Q01DX005 (ip), vehicle: Klucel (hydroxypropylcellulose) (HPC)): 0 of 6
- survivor count [2]: 0 of 6

Compound: COc1cc(-c2ccc(O)cc2)c(OC)c(O)c1-c1ccc(O)c(O)c1
- survivor count [6]: 6 of 6
- survivor count (dose: 0.3 mg/kg/injection, schedule: Q01DX009 (ip), vehicle: saline): 6 of 6

Compound: CNCCN1CCC(Cc2ccccc2)CC1
- survivor count (dose: 200.0 mg/kg/injection, schedule: Q01DX009 (ip), vehicle: saline): 2 of 4
- survivor count (dose: 400.0 mg/kg/injection, schedule: Q01DX009 (ip), vehicle: saline): 0 of 4

Compound: N#CN(Cc1ccccc1)C(c1ccccc1)(c1ccccc1)c1ccccc1
- survivor count (dose: 400.0 mg/kg/injection, schedule: Q01DX001 (ip), vehicle: Klucel (hydroxypropylcellulose) (HPC)): 6 of 6

Compound: CC12CCC3c4ccc(OP(=O)(N5CC5)N5CC5)cc4CCC3C1CCC2O (centres undefined)
- T/C [3]: 137 % of control
- survivor count [4]: 4 of 6

Compound: Cc1c(COC(=O)NC(C)C)c(COC(=O)NC(C)C)c2c3ccccc3c3ccccc3n12
- T/C (dose: 6.25 mg/kg/injection, schedule: Q01DX009 (ip), vehicle: distilled water + Tween-80): 144 % of control

Compound: C/C=C(\C)c1cc(=O)c2c(C)cc3c(c2o1)C(=O)c1c(O)c(C2CC(C)(N(C)C)C(OC(C)=O)C(C)O2)cc(C2CC(N(C)C)C(O)C(C)O2)c1C3=O (centres undefined)
- T/C [6]: 126 % of control
- T/C (dose: 0.31 mg/kg/injection, schedule: Q01DX009 (ip), vehicle: saline): 126 % of control
- T/C (dose: 0.62 mg/kg/injection, schedule: Q01DX009 (ip), vehicle: saline): 139 and 149 % of control
- T/C (dose: 1.25 mg/kg/injection, schedule: Q01DX009 (ip), vehicle: saline): 145 % of control
